Source: patent publication US20240279176A1, “SUBSTITUTED TRICYCLIC HETEROCYCLIC COMPOUNDS AS METALLO-BETA-LACTAMASE INHIBITORS” (priority 2021, published 2024)
At least one read-out could not be matched to a standard name with certainty.

Tested on: Klebsiella pneumoniae ATCC BAA-2146
Assay: Minimum inhibitory concentration (MIC), broth-microdilution (CLSI)
Assay type: cell-based
Conditions: compound alone; Imipenem series; K. pneumoniae ATCC BAA-2146
Text: The strain included in the study was Klebsiella pneumoniae ATCC BAA-2146 (Himedia®, India) with presence of New Delhi metallo-β-lactamase (NDM-1) gene. The quality control reference strains Escherichia coli ATCC 25922 and Pseudomonas aeruginosa ATCC 27853 were procured from Himedia®, India.
MIC values were identified through broth-microdilution in sterilized 96-well polystyrene flat-bottom microtitre plates (Cole-Parmer®) according to the guideline of the Clinical and Laboratory Standards Institute (CLSI) (CLSI; Methods for dilution antimicrobial susceptibility tests for bacteria that grow aerobically; Clinical Laboratory Standards Institute, M07-A09, 2012). This method involves the use of BBL™ Cation-adjusted Mueller-Hinton II Broth (CA-MHB; BD) and the strain (Klebsiella pneumoniae ATCC BAA-2146) concentration was adjusted to 5×10^5 CFU/mL. After 16-18 h of incubation at various concentrations of Imipenem, Meropenem (Alfa Aesar), or test compounds at 37° C., MIC was defined as the lowest concentration of antibiotic or test compound with no visible growth.

## O=C(O)c1[nH]c2c(c1-c1cc(Cl)cc(Cl)c1)CCc1ccccc1-2 [Example 2, 3-(3,5-dichlorophenyl)-4,5-dihydro-1H-benzo[g]indole-2-carboxylic Acid]
  Intrinsic MIC: > 128 µg/mL
